# Assay results from the supplement of paper PMC8728848.
# The list shows a part of the results.
# B1: PX9961M-bvu-482-23-482 (Bacteroides vulgatus) (protein)
# chain: WLDLAPSTQVDTETSINVLSDIEFTLNGIYSTMQSSDAYSGRLVYYGDVTGDDMQAVSSTKRTGNYYRFNFTKDNGPSSHWSYLYSIIQNCNLILMNVDKLSIDEDETEYKNDLKGQALAIRGMALFDLTRIFGYPYLKDNGASLGVPIVKELSTIDSKPARNTVAECYTEIISDLKNSTELLSGDFNKGKVNRWAAMTLLSRVYLYKGEYNEALTMAENAIKGAEKEGYALWTNEEYPTAWGNDASASNPGEILFEIVNLTTDSPGKESMGYLNSYNGYDDMCITCSFYQLLKKDPKDVRLKILSFDKKYYAYVNKYQPQQGENITDANIPLIRLSEAYLNAAEAAVQTGDNAKAVKYLNSIVQRANPENSVEGKTLTLENVLDERRKELVAEGHRMYDVIRNGMTVKRIDVKDSDINKTKHNTAYMEYDWNFHKILLPIPKKEMDANPNMKQNPGYVD
# Experiments:
# Experiment in all cases: glycan array binding signal (z-score within array); higher = stronger binding
# Details in all cases: glycan notation: IUPAC condensed, linker removed
# Fuc(a1-3)GlcNAc = target: Fuc(a1-3)GlcNAc
# Method in brief: (§1)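 Glycan array data came from 3228 arrays in the Consortium for Functional Glycomics database, and only arrays with an available protein sequence were kept. Glycan names were put into IUPAC-condensed notation, and columns mapping to the same glycan were averaged. The binding signal is a within-array Z-score, averaged across arrays of one protein sequence run at different concentrations or buffers and across linkers. A negative Z-score can be read as non-binding.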
# [1] = target: Fuc(a1-3)[Gal(b1-4)]Glc6S
# Method in brief: as §1
# [2] = target: Fuc(a1-3)[Gal(b1-4)]GlcNAc
# Method in brief: as §1
# [3] = target: Fuc(a1-3)[Gal(b1-4)]GlcNAc(b1-2)Man
# Method in brief: as §1
# [4] = target: Fuc(a1-3)[Gal(b1-4)]GlcNAc(b1-2)Man(a1-3)[Fuc(a1-3)[Gal(b1-4)]GlcNAc(b1-2)Man(a1-6)]Man(b1-4)GlcNAc(b1-4)GlcNAc
# Method in brief: as §1
# [5] = target: Fuc(a1-3)[Gal(b1-4)]GlcNAc(b1-2)Man(a1-3)[Fuc(a1-3)[Gal(b1-4)]GlcNAc(b1-2)Man(a1-6)]Man(b1-4)GlcNAc(b1-4)[Fuc(a1-6)]GlcNAc
# Method in brief: as §1
# [6] = target: Fuc(a1-3)[Gal(b1-4)]GlcNAc(b1-3)Gal(b1-3)[Fuc(a1-4)]GlcNAc
# Method in brief: as §1
# [7] = target: Fuc(a1-3)[Gal(b1-4)]GlcNAc(b1-3)Gal(b1-4)[Fuc(a1-3)]GlcNAc
# Method in brief: as §1
# [8] = target: Fuc(a1-3)[Gal(b1-4)]GlcNAc(b1-3)Gal(b1-4)[Fuc(a1-3)]GlcNAc(b1-3)Gal(b1-4)[Fuc(a1-3)]GlcNAc
# Method in brief: as §1
# [9] = target: Fuc(a1-3)[Gal(b1-4)]GlcNAc(b1-3)GalNAc
# Method in brief: as §1
# [10] = target: Fuc(a1-3)[Gal(b1-4)]GlcNAc(b1-6)GalNAc
# Method in brief: as §1
# [11] = target: Fuc(a1-3)[Gal(b1-4)]GlcNAc(b1-6)[Gal(b1-3)GlcNAc(b1-3)]Gal(b1-4)Glc
# Method in brief: as §1
# [12] = target: Fuc(a1-3)[Gal(b1-4)]GlcNAc6S
# Method in brief: as §1
# [13] = target: Fuc(a1-3)[Gal3S(b1-4)]Glc
# Method in brief: as §1
# [14] = target: Fuc(a1-3)[Gal3S(b1-4)]GlcNAc
# Method in brief: as §1
# [15] = target: Fuc(a1-3)[Gal3S(b1-4)]GlcNAc6S
# Method in brief: as §1
# [16] = target: Fuc(a1-3)[GalNAc(b1-4)]GlcNAc
# Method in brief: as §1
# [17] = target: Fuc(a1-3)[GalNAc(b1-4)]GlcNAc6S
# Method in brief: as §1
# Fuc(a1-4)GlcNAc = target: Fuc(a1-4)GlcNAc
# Method in brief: as §1
# Fuc(b1-3)GlcNAc = target: Fuc(b1-3)GlcNAc
# Method in brief: as §1
# Gal(a1-2)Gal = target: Gal(a1-2)Gal
# Method in brief: as §1
# Gal(a1-3)Gal = target: Gal(a1-3)Gal
# Method in brief: as §1
# Gal(a1-3)Gal(b1-3)GlcNAc = target: Gal(a1-3)Gal(b1-3)GlcNAc
# Method in brief: as §1
# [18] = target: Gal(a1-3)Gal(b1-3)GlcNAc(b1-2)Man
# Method in brief: as §1
# [19] = target: Gal(a1-3)Gal(b1-3)GlcNAc(b1-2)Man(a1-3)[Gal(a1-3)Gal(b1-3)GlcNAc(b1-2)Man(a1-6)]Man(b1-4)GlcNAc(b1-4)GlcNAc
# Method in brief: as §1
# [20] = target: Gal(a1-3)Gal(b1-3)GlcNAc(b1-3)GalNAc
# Method in brief: as §1
# [21] = target: Gal(a1-3)Gal(b1-3)GlcNAc(b1-6)GalNAc
# Method in brief: as §1
# [22] = target: Gal(a1-3)Gal(b1-3)[Fuc(a1-4)]GlcNAc(b1-2)Man(a1-3)[Gal(a1-3)Gal(b1-3)[Fuc(a1-4)]GlcNAc(b1-2)Man(a1-6)]Man(b1-4)GlcNAc(b1-4)GlcNAc
# Method in brief: as §1
# Gal(a1-3)Gal(b1-4)Glc = target: Gal(a1-3)Gal(b1-4)Glc
# Method in brief: as §1
# Gal(a1-3)Gal(b1-4)GlcNAc = target: Gal(a1-3)Gal(b1-4)GlcNAc
# Method in brief: as §1
# [23] = target: Gal(a1-3)Gal(b1-4)GlcNAc(b1-2)Man
# Method in brief: as §1
# [24] = target: Gal(a1-3)Gal(b1-4)GlcNAc(b1-2)Man(a1-3)[Gal(a1-3)Gal(b1-4)GlcNAc(b1-2)Man(a1-6)]Man(b1-4)GlcNAc(b1-4)GlcNAc
# Method in brief: as §1
# [25] = target: Gal(a1-3)Gal(b1-4)GlcNAc(b1-3)GalNAc
# Method in brief: as §1
# [26] = target: Gal(a1-3)Gal(b1-4)GlcNAc(b1-6)GalNAc
# Method in brief: as §1
# [27] = target: Gal(a1-3)Gal(b1-4)[Fuc(a1-3)]GlcNAc
# Method in brief: as §1
# [28] = target: Gal(a1-3)Gal(b1-4)[Fuc(a1-3)]GlcNAc(b1-2)Man(a1-3)[Gal(a1-3)Gal(b1-4)[Fuc(a1-3)]GlcNAc(b1-2)Man(a1-6)]Man(b1-4)GlcNAc(b1-4)GlcNAc
# Method in brief: as §1
# Gal(a1-3)GalNAc = target: Gal(a1-3)GalNAc
# Method in brief: as §1
binder,measurement,setting,value
B1,glycan array binding signal (z-score),Fuc(a1-3)GlcNAc,-0.637
same,glycan array binding signal (z-score),[1],-0.15
same,glycan array binding signal (z-score),[2],-0.692
same,glycan array binding signal (z-score),[3],-0.391
same,glycan array binding signal (z-score),[4],-0.441
same,glycan array binding signal (z-score),[5],1.97
same,glycan array binding signal (z-score),[6],-0.631
same,glycan array binding signal (z-score),[7],-0.327
same,glycan array binding signal (z-score),[8],0.335
same,glycan array binding signal (z-score),[9],-0.016
same,glycan array binding signal (z-score),[10],-0.457
same,glycan array binding signal (z-score),[11],0.141
same,glycan array binding signal (z-score),[12],-0.74
same,glycan array binding signal (z-score),[13],-0.445
same,glycan array binding signal (z-score),[14],0.504
same,glycan array binding signal (z-score),[15],-0.788
same,glycan array binding signal (z-score),[16],0.771
same,glycan array binding signal (z-score),[17],-0.542
same,glycan array binding signal (z-score),Fuc(a1-4)GlcNAc,0.856
same,glycan array binding signal (z-score),Fuc(b1-3)GlcNAc,-0.445
same,glycan array binding signal (z-score),Gal(a1-2)Gal,-0.332
same,glycan array binding signal (z-score),Gal(a1-3)Gal,-0.668
same,glycan array binding signal (z-score),Gal(a1-3)Gal(b1-3)GlcNAc,1.37
same,glycan array binding signal (z-score),[18],-0.071
same,glycan array binding signal (z-score),[19],-0.261
same,glycan array binding signal (z-score),[20],-0.339
same,glycan array binding signal (z-score),[21],-0.479
same,glycan array binding signal (z-score),[22],0.327
same,glycan array binding signal (z-score),Gal(a1-3)Gal(b1-4)Glc,-0.347
same,glycan array binding signal (z-score),Gal(a1-3)Gal(b1-4)GlcNAc,-0.37
same,glycan array binding signal (z-score),[23],-0.696
same,glycan array binding signal (z-score),[24],0.825
same,glycan array binding signal (z-score),[25],-0.454
same,glycan array binding signal (z-score),[26],0.342
same,glycan array binding signal (z-score),[27],0.455
same,glycan array binding signal (z-score),[28],-0.324
same,glycan array binding signal (z-score),Gal(a1-3)GalNAc,-0.738

# Random excerpt: 2 records from the list, in no set order.
binder,measurement,setting,value
B1,glycan array binding signal (z-score),[23],-0.696
same,glycan array binding signal (z-score),Fuc(a1-4)GlcNAc,0.856
